These are yes or no findings as the source states them, for the method shown. Binding seen in cells or lysates may run through a third protein. For some assays here: Where a sequence is shown, tags or fusion partners need not be part of it.

Protein sequences, listed by entry. Tags and fused reporters are not part of them.
UniProt Q9UBN7: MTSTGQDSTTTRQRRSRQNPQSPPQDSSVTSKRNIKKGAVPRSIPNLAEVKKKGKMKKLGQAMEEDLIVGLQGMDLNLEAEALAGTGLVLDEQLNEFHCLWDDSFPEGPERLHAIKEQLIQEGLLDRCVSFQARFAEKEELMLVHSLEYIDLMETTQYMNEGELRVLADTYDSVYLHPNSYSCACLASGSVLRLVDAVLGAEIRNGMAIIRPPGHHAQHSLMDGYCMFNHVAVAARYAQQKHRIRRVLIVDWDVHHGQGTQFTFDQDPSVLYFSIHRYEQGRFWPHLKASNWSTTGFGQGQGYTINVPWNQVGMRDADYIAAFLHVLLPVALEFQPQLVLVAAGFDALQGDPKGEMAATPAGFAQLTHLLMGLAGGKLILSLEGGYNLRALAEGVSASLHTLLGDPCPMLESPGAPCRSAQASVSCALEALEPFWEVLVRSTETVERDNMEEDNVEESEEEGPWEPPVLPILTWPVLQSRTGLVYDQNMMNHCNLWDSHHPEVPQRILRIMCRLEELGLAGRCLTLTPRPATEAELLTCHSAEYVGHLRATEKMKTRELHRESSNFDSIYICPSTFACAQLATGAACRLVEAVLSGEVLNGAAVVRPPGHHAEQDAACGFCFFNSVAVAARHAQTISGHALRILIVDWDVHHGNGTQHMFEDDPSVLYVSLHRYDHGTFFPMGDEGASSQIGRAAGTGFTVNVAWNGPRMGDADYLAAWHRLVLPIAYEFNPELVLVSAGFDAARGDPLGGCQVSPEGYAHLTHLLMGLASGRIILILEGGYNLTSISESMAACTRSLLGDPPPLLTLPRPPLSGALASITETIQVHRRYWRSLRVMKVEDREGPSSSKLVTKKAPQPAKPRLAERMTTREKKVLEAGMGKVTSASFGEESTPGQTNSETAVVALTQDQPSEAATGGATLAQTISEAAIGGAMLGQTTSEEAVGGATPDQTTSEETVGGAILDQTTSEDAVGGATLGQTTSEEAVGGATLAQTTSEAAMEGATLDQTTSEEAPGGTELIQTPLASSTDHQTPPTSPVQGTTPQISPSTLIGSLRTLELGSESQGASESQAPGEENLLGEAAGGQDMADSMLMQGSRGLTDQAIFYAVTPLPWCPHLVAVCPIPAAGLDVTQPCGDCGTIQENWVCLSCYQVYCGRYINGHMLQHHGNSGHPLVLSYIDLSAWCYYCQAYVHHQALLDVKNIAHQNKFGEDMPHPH

In assay [1] the target is histone deacetylase 6 (HDAC6), endogenous in human PBMCs (human (endogenous in PBMCs)) (UniProt Q9UBN7). Kind of assay: co-IP; PBMC lysates of a CMT patient (GlyRS S581L) and a healthy donor, equal total protein; anti-HDAC6 on protein G-sepharose, overnight at 4 °C, washed four times with cold PBS pH 7.4; western blot.
In assay [2] the target is T1, histone deacetylase 6 (HDAC6), endogenous in mouse brain (mouse (endogenous in brain tissue)) (UniProt Q9Z2V5).
T1 sequence: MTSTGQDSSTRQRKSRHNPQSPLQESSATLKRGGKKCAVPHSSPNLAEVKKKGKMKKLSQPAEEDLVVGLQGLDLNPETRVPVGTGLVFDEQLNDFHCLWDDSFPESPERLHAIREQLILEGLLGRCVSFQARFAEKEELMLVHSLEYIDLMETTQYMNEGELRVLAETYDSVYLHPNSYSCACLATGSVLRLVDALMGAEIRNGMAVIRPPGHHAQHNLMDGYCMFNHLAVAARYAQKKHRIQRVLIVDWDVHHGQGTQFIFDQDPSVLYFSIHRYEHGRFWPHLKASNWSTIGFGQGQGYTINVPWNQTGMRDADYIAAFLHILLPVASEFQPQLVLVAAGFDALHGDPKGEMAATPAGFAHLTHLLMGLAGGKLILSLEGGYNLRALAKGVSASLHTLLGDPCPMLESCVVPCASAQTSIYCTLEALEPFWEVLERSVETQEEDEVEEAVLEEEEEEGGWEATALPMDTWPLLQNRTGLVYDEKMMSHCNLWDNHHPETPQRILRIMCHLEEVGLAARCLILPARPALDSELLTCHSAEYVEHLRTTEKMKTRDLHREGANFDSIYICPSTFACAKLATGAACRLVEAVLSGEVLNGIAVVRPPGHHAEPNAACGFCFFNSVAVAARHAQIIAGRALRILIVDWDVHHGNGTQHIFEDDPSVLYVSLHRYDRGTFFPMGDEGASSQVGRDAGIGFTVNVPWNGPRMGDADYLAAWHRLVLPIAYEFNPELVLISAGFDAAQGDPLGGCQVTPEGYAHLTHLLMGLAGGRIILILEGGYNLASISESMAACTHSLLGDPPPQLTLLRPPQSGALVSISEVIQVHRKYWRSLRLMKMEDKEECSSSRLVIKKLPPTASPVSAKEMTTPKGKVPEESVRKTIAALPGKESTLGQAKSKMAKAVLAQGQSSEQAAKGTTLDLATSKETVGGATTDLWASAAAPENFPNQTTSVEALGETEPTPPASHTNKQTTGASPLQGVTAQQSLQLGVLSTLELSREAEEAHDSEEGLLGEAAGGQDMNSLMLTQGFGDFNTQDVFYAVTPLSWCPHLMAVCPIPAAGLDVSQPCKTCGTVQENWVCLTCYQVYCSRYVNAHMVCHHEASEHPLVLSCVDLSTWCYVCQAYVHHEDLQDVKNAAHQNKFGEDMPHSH
Kind of assay: co-IP; mouse brain tissue lysates of Gars^+/+ and Gars^P234KY/+ littermates (postnatal day 7); antibody on protein G-sepharose, 3 h or overnight at 4 °C, washed four times with cold PBS pH 7.4; western blot. (In general: A western blot detects proteins with antibodies after separation by electrophoresis.)

B1: GlyRS, endogenous in PBMCs of a healthy donor (protein, UniProt P41250 37-739)
chain: SAASCPPISLPAAASRSSMDGAGAEEVLAPLRLAVRQQGDLVRKLKEDKAPQVDVDKAVAELKARKRVLEAKELALQPKDDIVDRAKMEDTLKRRFFYDQAFAIYGGVSGLYDFGPVGCALKNNIIQTWRQHFIQEEQILEIDCTMLTPEPVLKTSGHVDKFADFMVKDVKNGECFRADHLLKAHLQKLMSDKKCSVEKKSEMESVLAQLDNYGQQELADLFVNYNVKSPITGNDLSPPVSFNLMFKTFIGPGGNMPGYLRPETAQGIFLNFKRLLEFNQGKLPFAAAQIGNSFRNEISPRSGLIRVREFTMAEIEHFVDPSEKDHPKFQNVADLHLYLYSAKAQVSGQSARKMRLGDAVEQGVINNTVLGYFIGRIYLYLTKVGISPDKLRFRQHMENEMAHYACDCWDAESKTSYGWIEIVGCADRSCYDLSCHARATKVPLVAEKPLKEPKTVNVVQFEPSKGAIGKAYKKDAKLVMEYLAICDECYITEMEMLLNEKGEFTIETEGKTFQLTKDMINVKRFQKTLYVEEVVPNVIEPSFGLGRIMYTVFEHTFHVREGDEQRTFFSFPAVVAPFKCSVLPLSQNQEFMPFVKELSEALTRHGVSHKVDDSSGSIGRRYARTDEIGVAFGVTIDFDTVNKTPHTATLRDRDSMRQIRAEISELPSIVQDLANGNITWADVEARYPLFEGQETGKKETIEE
In the case of B1, the binding entry in assay [1] was “no binding”.

B2: glycyl-tRNA synthetase (GlyRS), wild type, of Gars^+/+ mice (protein, UniProt Q9CZD3 34-729)
chain: LSAPAQPAASRSSMDSAEELLAPLRLAVRQQGDFVRKLKEDKAPQVDVDRAVAELKARKRVLEAKELALQPKDDIVDRAKMEDTLKRRFFYDQAFAIYGGVSGLYDFGPVGCALKNNIIQAWRQHFIQEEQILEIDCTMLTPEPVLKTSGHVDKFADFMVKDVKNGECFRADHLLKAHLQKLMSDKKCSAEKKSEMESVLAQLDNYGQQELADLFVNYNVKSPTTGNDLSPPVPFNLMFQTFIGPGGNMPGYLRPETAQGIFLNFKRLLEFNQGKLPFAAAQIGNSFRNEISPRSGLIRVREFTMAEIEHFVDPTEKDHPKFQSVADLCLYLYSAKAQVTGQSARKMRLGDAVEQGVINNSVLGYFIGRIYLYLTKVGISPDKLRFRQHMENEMAHYACDCWDAESKTSYGWIEIVGCADRSCYDLSCHARATKVPLVAEKPLKEPKTVNVVQFEPNKGAVGKAYKKDAKLVLEYLSACDECYISEMELLLSEKGEFTIETEGKTFQLTKDMVSVKRFQKTLHVEEVVPSVIEPSFGLGRIMYTILEHTFHVREGDEQRTFFSFPAVVAPFKCSVLPLSQNQEFMPFVKELSEALTRNGVSHKVDDSSGSIGRRYARTDEIGVAFGITIDFDTVNKTPHTATLRDRDSMRQIRAEVSELPNVVRDLANGNITWADVEARYPLFEGQETGKKETVEE
On to B2, for which, in assay [2], the binding result is given as “no binding”.

Values taken from article PMC5843656.
